Key:
[1] = tested on: immature soybean embryos; assay: Embryo feeding experiments: cyclitols fed to immature soybean embryos, precocious maturation by slow drying, soluble carbohydrates in axis and cotyledons; type: in vivo, Glycine max (L.) Merrill
[2] = tested on: soybean explants; assay: Soybean explant feeding with 50 mM free cyclitols for one week, soluble carbohydrates in mature seeds; type: in vivo, Glycine max (L.) Merrill cv. Chippewa 64; settings: axis and cotyledon tissue of mature seeds
[3] = tested on: soybean explants; assay: Soybean explant feeding 3 days with 50 mM cyclitol in 1% sucrose, slow drying time course, soluble carbohydrates in axis, cotyledon, seed coat and leaf
[4] = tested on: buckwheat embryos; assay: Soluble carbohydrates in buckwheat embryos from seeds matured at 15, 22 or 30° C.; type: in vivo, Fagopyrum esculentum Moench
[5] = 3 days transport of sucrose (1%) and D-chiro-inositol (50 mM), after 2 days slow drying, Rep 1
[6] = 3 days transport of sucrose (1%) and D-chiro-inositol (50 mM), after 2 days slow drying, Rep 2
[7] = 3 days transport of sucrose (1%) and D-chiro-inositol (50 mM), after 4 days slow drying, Rep 1
[8] = 3 days transport of sucrose (1%) and D-chiro-inositol (50 mM), after 4 days slow drying, Rep 2
[9] = 3 days transport of sucrose (1%) and D-chiro-inositol (50 mM), after 14 days slow drying, Rep 1
[10] = 3 days transport of sucrose (1%) and D-chiro-inositol (50 mM), after 14 days slow drying, Rep 2
[11] = 3 days transport of sucrose (1%) and D-chiro-inositol (50 mM), before slow drying, Rep 1
[12] = 3 days transport of sucrose (1%) and D-chiro-inositol (50 mM), before slow drying, Rep 2
[13] = 3 days transport of sucrose (1%) and D-pinitol (50 mM), after 2 days slow drying, Rep 1
[14] = 3 days transport of sucrose (1%) and D-pinitol (50 mM), after 2 days slow drying, Rep 2
[15] = 3 days transport of sucrose (1%) and D-pinitol (50 mM), after 4 days slow drying, Rep 1
[16] = 3 days transport of sucrose (1%) and D-pinitol (50 mM), after 4 days slow drying, Rep 2
[17] = 3 days transport of sucrose (1%) and D-pinitol (50 mM), after 14 days slow drying, Rep 1
[18] = 3 days transport of sucrose (1%) and D-pinitol (50 mM), after 14 days slow drying, Rep 2
[19] = 3 days transport of sucrose (1%) and D-pinitol (50 mM), before slow drying, Rep 1
[20] = 3 days transport of sucrose (1%) and D-pinitol (50 mM), before slow drying, Rep 2
[21] = 3 days transport of sucrose (1%) and myo-inositol (50 mM), after 2 days slow drying, Rep 1
[22] = 3 days transport of sucrose (1%) and myo-inositol (50 mM), after 2 days slow drying, Rep 2
[23] = 3 days transport of sucrose (1%) and myo-inositol (50 mM), after 4 days slow drying, Rep 1
[24] = 3 days transport of sucrose (1%) and myo-inositol (50 mM), after 4 days slow drying, Rep 2
[25] = 3 days transport of sucrose (1%) and myo-inositol (50 mM), after 14 days slow drying, Rep 1
[26] = 3 days transport of sucrose (1%) and myo-inositol (50 mM), after 14 days slow drying, Rep 2
[27] = 3 days transport of sucrose (1%) and myo-inositol (50 mM), before slow drying, Rep 1
[28] = 3 days transport of sucrose (1%) and myo-inositol (50 mM), before slow drying, Rep 2
[29] = 3 days transport of sucrose (1%) without cyclitols, after 2 days slow drying, Rep 1
[30] = 3 days transport of sucrose (1%) without cyclitols, after 2 days slow drying, Rep 2
[31] = 3 days transport of sucrose (1%) without cyclitols, after 4 days slow drying, Rep 1
[32] = 3 days transport of sucrose (1%) without cyclitols, after 4 days slow drying, Rep 2
[33] = 3 days transport of sucrose (1%) without cyclitols, after 14 days slow drying, Rep 1
[34] = 3 days transport of sucrose (1%) without cyclitols, after 14 days slow drying, Rep 2
[35] = 3 days transport of sucrose (1%) without cyclitols, before slow drying, Rep 1
[36] = 3 days transport of sucrose (1%) without cyclitols, before slow drying, Rep 2

OC[C@H]1O[C@H](OC[C@H]2O[C@H](OC[C@H]3O[C@H](O[C@]4(CO)O[C@H](CO)[C@@H](O)[C@@H]4O)[C@H](O)[C@@H](O)[C@@H]3O)[C@H](O)[C@@H](O)[C@H]2O)[C@H](O)[C@@H](O)[C@H]1O [Stachyose, stachyose]
change in concentration after feeding myo-inositol ([1]; axis and cotyledon tissues, myo-inositol up to 50 mM, after precocious maturation): little change | increase in concentration after feeding D-chiro-inositol ([1]; axis and cotyledons, concentration series, 14 days precocious maturation): did not increase | change in concentration after feeding 50 mM myo-inositol to explants [2]: No significant changes | Accumulation of soluble carbohydrates in soybean axis [3, 5]: 11.56 μg/axis | Accumulation of soluble carbohydrates in soybean cotyledon [3, 5]: 44.86 μg/cotyledon | Accumulation of soluble carbohydrates in soybean seed coat [3, 5]: 0 μg/seed coat | Accumulation of soluble carbohydrates in soybean axis [3, 6]: 8.94 μg/axis | Accumulation of soluble carbohydrates in soybean cotyledon [3, 6]: 0 μg/cotyledon | Accumulation of soluble carbohydrates in soybean seed coat [3, 6]: 0 μg/seed coat | Accumulation of soluble carbohydrates in soybean axis [3, 7]: 49.55 μg/axis | Accumulation of soluble carbohydrates in soybean cotyledon [3, 7]: 308.62 μg/cotyledon | Accumulation of soluble carbohydrates in soybean seed coat [3, 7]: 0 μg/seed coat | Accumulation of soluble carbohydrates in soybean axis [3, 8]: 22.07 μg/axis | Accumulation of soluble carbohydrates in soybean cotyledon [3, 8]: 277.15 μg/cotyledon | Accumulation of soluble carbohydrates in soybean seed coat [3, 8]: 0 μg/seed coat | Accumulation of soluble carbohydrates in soybean axis [3, 9]: 47.82 μg/axis | Accumulation of soluble carbohydrates in soybean cotyledon [3, 9]: 357.02 μg/cotyledon | Accumulation of soluble carbohydrates in soybean seed coat [3, 9]: 0 μg/seed coat | Accumulation of soluble carbohydrates in soybean axis [3, 10]: 39.47 μg/axis | Accumulation of soluble carbohydrates in soybean cotyledon [3, 10]: 349.60 μg/cotyledon | Accumulation of soluble carbohydrates in soybean seed coat [3, 10]: 15.45 μg/seed coat | Accumulation of soluble carbohydrates in soybean axis [3, 11]: 0 μg/axis | Accumulation of soluble carbohydrates in soybean cotyledon [3, 11]: 0 μg/cotyledon | Accumulation of soluble carbohydrates in soybean axis [3, 12]: 0 μg/axis | Accumulation of soluble carbohydrates in soybean cotyledon [3, 12]: 0 μg/cotyledon | Accumulation of soluble carbohydrates in soybean axis [3, 13]: 11.91 μg/axis | Accumulation of soluble carbohydrates in soybean cotyledon [3, 13]: 0 μg/cotyledon | Accumulation of soluble carbohydrates in soybean seed coat [3, 13]: 0 μg/seed coat | Accumulation of soluble carbohydrates in soybean axis [3, 14]: 7.69 μg/axis | Accumulation of soluble carbohydrates in soybean cotyledon [3, 14]: 0 μg/cotyledon | Accumulation of soluble carbohydrates in soybean seed coat [3, 14]: 0 μg/seed coat | Accumulation of soluble carbohydrates in soybean axis [3, 15]: 79.54 μg/axis | Accumulation of soluble carbohydrates in soybean cotyledon [3, 15]: 211.21 μg/cotyledon | Accumulation of soluble carbohydrates in soybean seed coat [3, 15]: 0 μg/seed coat | Accumulation of soluble carbohydrates in soybean axis [3, 16]: 28.64 μg/axis | Accumulation of soluble carbohydrates in soybean cotyledon [3, 16]: 552.89 μg/cotyledon | Accumulation of soluble carbohydrates in soybean seed coat [3, 16]: 0 μg/seed coat | Accumulation of soluble carbohydrates in soybean axis [3, 17]: 54.54 μg/axis | Accumulation of soluble carbohydrates in soybean cotyledon [3, 17]: 268.51 μg/cotyledon | Accumulation of soluble carbohydrates in soybean seed coat [3, 17]: 0 μg/seed coat | Accumulation of soluble carbohydrates in soybean axis [3, 18]: 78.56 μg/axis | Accumulation of soluble carbohydrates in soybean cotyledon [3, 18]: 427.70 μg/cotyledon | Accumulation of soluble carbohydrates in soybean seed coat [3, 18]: 64.19 μg/seed coat | Accumulation of soluble carbohydrates in soybean axis [3, 19]: 0 μg/axis | Accumulation of soluble carbohydrates in soybean cotyledon [3, 19]: 0 μg/cotyledon | Accumulation of soluble carbohydrates in soybean axis [3, 20]: 0 μg/axis | Accumulation of soluble carbohydrates in soybean cotyledon [3, 20]: 0 μg/cotyledon | Accumulation of soluble carbohydrates in soybean axis [3, 21]: 9.92 μg/axis | Accumulation of soluble carbohydrates in soybean cotyledons [3, 21]: 0 μg/cotyledon | Accumulation of soluble carbohydrates in soybean seed coats [3, 21]: 0 μg/seed coat | Accumulation of soluble carbohydrates in soybean axis [3, 22]: 6.33 μg/axis | Accumulation of soluble carbohydrates in soybean cotyledons [3, 22]: 50.41 μg/cotyledon | Accumulation of soluble carbohydrates in soybean seed coats [3, 22]: 0 μg/seed coat | Accumulation of soluble carbohydrates in soybean axis [3, 23]: 62.18 μg/axis | Accumulation of soluble carbohydrates in soybean cotyledons [3, 23]: 224.95 μg/cotyledon | Accumulation of soluble carbohydrates in soybean axis [3, 24]: 55.60 μg/axis | Accumulation of soluble carbohydrates in soybean cotyledons [3, 24]: 774.04 μg/cotyledon | Accumulation of soluble carbohydrates in soybean seed coats [3, 24]: 0 μg/seed coat | Accumulation of soluble carbohydrates in soybean axis [3, 25]: 89.46 μg/axis | Accumulation of soluble carbohydrates in soybean cotyledons [3, 25]: 399.25 μg/cotyledon | Accumulation of soluble carbohydrates in soybean seed coats [3, 25]: 20.21 μg/seed coat | Accumulation of soluble carbohydrates in soybean axis [3, 26]: 57.18 μg/axis | Accumulation of soluble carbohydrates in soybean cotyledons [3, 26]: 323.00 μg/cotyledon | Accumulation of soluble carbohydrates in soybean seed coats [3, 26]: 35.12 μg/seed coat | Accumulation of soluble carbohydrates in soybean axis [3, 27]: 0 μg/axis | Accumulation of soluble carbohydrates in soybean cotyledons [3, 27]: 0 μg/cotyledon | Accumulation of soluble carbohydrates in soybean axis [3, 28]: 0 μg/axis | Accumulation of soluble carbohydrates in soybean cotyledons [3, 28]: 0 μg/cotyledon | Accumulation of soluble carbohydrates in soybean axis [3, 29]: 0 μg/axis | Accumulation of soluble carbohydrates in soybean cotyledon [3, 29]: 12.20 μg/cotyledon | Accumulation of soluble carbohydrates in soybean seed coats [3, 29]: 0 μg/seed coat | Accumulation of soluble carbohydrates in soybean axis [3, 30]: 27.73 μg/axis | Accumulation of soluble carbohydrates in soybean cotyledon [3, 30]: 18.15 μg/cotyledon | Accumulation of soluble carbohydrates in soybean seed coats [3, 30]: 0 μg/seed coat | Accumulation of soluble carbohydrates in soybean axis [3, 31]: 96.03 μg/axis | Accumulation of soluble carbohydrates in soybean cotyledon [3, 31]: 773.51 μg/cotyledon | Accumulation of soluble carbohydrates in soybean seed coats [3, 31]: 0 μg/seed coat | Accumulation of soluble carbohydrates in soybean axis [3, 32]: 118.05 μg/axis | Accumulation of soluble carbohydrates in soybean cotyledon [3, 32]: 516.66 μg/cotyledon | Accumulation of soluble carbohydrates in soybean seed coats [3, 32]: 0 μg/seed coat | Accumulation of soluble carbohydrates in soybean axis [3, 33]: 101.39 μg/axis | Accumulation of soluble carbohydrates in soybean cotyledon [3, 33]: 1331.00 μg/cotyledon | Accumulation of soluble carbohydrates in soybean seed coats [3, 33]: 0 μg/seed coat | Accumulation of soluble carbohydrates in soybean axis [3, 34]: 69.71 μg/axis | Accumulation of soluble carbohydrates in soybean cotyledon [3, 34]: 904.20 μg/cotyledon | Accumulation of soluble carbohydrates in soybean seed coats [3, 34]: 16.46 μg/seed coat | Accumulation of soluble carbohydrates in soybean axis [3, 35]: 0 μg/axis | Accumulation of soluble carbohydrates in soybean cotyledon [3, 35]: 0 μg/cotyledon | Accumulation of soluble carbohydrates in soybean axis [3, 36]: 7.83 μg/axis | Accumulation of soluble carbohydrates in soybean cotyledon [3, 36]: 0 μg/cotyledon | change after feeding myo-inositol ([3]; seed coat of dry seeds (14 days slow drying)): doubled | Minor soluble carbohydrates in buckwheat embryos ([4]; maturation temperature 15° C., 16 DAP): 0 μg/embryo | Minor soluble carbohydrates in buckwheat embryos ([4]; maturation temperature 15° C., 20 DAP): 0 μg/embryo | Minor soluble carbohydrates in buckwheat embryos ([4]; maturation temperature 15° C., 28 DAP): 0 μg/embryo | Minor soluble carbohydrates in buckwheat embryos ([4]; maturation temperature 15° C., 28 DAP + 2 wk 12% RH): 0 μg/embryo | Minor soluble carbohydrates in buckwheat embryos ([4]; maturation temperature 22° C., 20 DAP): 0 μg/embryo | Minor soluble carbohydrates in buckwheat embryos ([4]; maturation temperature 22° C., 28 DAP): 3.04 ± 3.04 μg/embryo | Minor soluble carbohydrates in buckwheat embryos ([4]; maturation temperature 30° C., 20 DAP): 2.71 ± 2.71 μg/embryo | Minor soluble carbohydrates in buckwheat embryos ([4]; maturation temperature 30° C., 28 DAP): 5.07 ± 2.53 μg/embryo

From patent publication US9926581B2, “Fagopyritol synthase genes and uses thereof” (Cornell Research Foundation, Inc., priority 2002, dated 2018)
